Experimental data reported in article PMC13570301.
These are yes or no findings as the source states them, for the method shown. Some entries that bind do so weakly or less than the wild type. Sequences can lack the tags named with a protein.

Target: T1, CHIP-myc K30A (human), Q9UNE7
T1 chain: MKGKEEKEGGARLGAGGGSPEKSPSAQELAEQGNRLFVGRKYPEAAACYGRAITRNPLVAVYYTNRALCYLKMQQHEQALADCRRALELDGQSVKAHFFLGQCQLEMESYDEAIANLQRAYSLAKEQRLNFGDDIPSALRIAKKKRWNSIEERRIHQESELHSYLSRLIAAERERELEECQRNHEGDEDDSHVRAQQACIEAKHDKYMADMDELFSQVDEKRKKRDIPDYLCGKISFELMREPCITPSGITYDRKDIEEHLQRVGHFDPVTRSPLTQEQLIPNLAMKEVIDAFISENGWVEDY
Assay: native gel or EMSA; Blue native PAGE and immunoblot of lysates (Native PAGE sample buffer, 1% digitonin) of transfected COS-7 cells kept at 37 °C or heat-shocked at 42 °C for 2 h; self-association
Conditions: remark: other sources report otherwise

B1: CHIP-myc K30A, Q9UNE7-1 1-303 (enzyme)
chain: MKGKEEKEGGARLGAGGGSPEKSPSAQELAEQGNRLFVGRKYPEAAACYGRAITRNPLVAVYYTNRALCYLKMQQHEQALADCRRALELDGQSVKAHFFLGQCQLEMESYDEAIANLQRAYSLAKEQRLNFGDDIPSALRIAKKKRWNSIEERRIHQESELHSYLSRLIAAERERELEECQRNHEGDEDDSHVRAQQACIEAKHDKYMADMDELFSQVDEKRKKRDIPDYLCGKISFELMREPCITPSGITYDRKDIEEHLQRVGHFDPVTRSPLTQEQLIPNLAMKEVIDAFISENGWVEDY
binding: binds
